This is one part of the list. The data scatter; read single values as rough.
What was measured:
[1] = compound: ClCC(=O)N[C@@H]1CCCc2ccccc12; experiment: log2 mean competition ratio of IA-DTB cysteine labelling (DMSO/compound) (log2 ratio); higher = stronger cysteine engagement by compound; conditions: treatment time: 4 h, cell line lysate: HEK293T
Protocol: (§1)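 IA-DTB competitive cysteine chemoproteomics in HEK293T RIPA lysate. Lysates were treated with compound 29 or 30 at 50 or 200 µM for 4 h, then IA-DTB (500 µM, 1 h), trypsin-digested, NeutrAvidin-enriched and analysed by diaPASEF. Competition ratio = intensity DMSO / intensity compound (n=4 treated, n=64 DMSO); binding: mean log2 CR ≥ 1 and p ≤ 0.05 plus QC filters. Target is the cysteine site.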

Chains of the proteins cited; added tags and fusions are not shown. Where a name states a change or a piece, a line headed by the entry shows the natural chain unless it says otherwise. A line that says so, or that is headed by a name, gives the form on record, which may keep a tag or linker. Residues count along the entry.
UniProt Q9P2D3: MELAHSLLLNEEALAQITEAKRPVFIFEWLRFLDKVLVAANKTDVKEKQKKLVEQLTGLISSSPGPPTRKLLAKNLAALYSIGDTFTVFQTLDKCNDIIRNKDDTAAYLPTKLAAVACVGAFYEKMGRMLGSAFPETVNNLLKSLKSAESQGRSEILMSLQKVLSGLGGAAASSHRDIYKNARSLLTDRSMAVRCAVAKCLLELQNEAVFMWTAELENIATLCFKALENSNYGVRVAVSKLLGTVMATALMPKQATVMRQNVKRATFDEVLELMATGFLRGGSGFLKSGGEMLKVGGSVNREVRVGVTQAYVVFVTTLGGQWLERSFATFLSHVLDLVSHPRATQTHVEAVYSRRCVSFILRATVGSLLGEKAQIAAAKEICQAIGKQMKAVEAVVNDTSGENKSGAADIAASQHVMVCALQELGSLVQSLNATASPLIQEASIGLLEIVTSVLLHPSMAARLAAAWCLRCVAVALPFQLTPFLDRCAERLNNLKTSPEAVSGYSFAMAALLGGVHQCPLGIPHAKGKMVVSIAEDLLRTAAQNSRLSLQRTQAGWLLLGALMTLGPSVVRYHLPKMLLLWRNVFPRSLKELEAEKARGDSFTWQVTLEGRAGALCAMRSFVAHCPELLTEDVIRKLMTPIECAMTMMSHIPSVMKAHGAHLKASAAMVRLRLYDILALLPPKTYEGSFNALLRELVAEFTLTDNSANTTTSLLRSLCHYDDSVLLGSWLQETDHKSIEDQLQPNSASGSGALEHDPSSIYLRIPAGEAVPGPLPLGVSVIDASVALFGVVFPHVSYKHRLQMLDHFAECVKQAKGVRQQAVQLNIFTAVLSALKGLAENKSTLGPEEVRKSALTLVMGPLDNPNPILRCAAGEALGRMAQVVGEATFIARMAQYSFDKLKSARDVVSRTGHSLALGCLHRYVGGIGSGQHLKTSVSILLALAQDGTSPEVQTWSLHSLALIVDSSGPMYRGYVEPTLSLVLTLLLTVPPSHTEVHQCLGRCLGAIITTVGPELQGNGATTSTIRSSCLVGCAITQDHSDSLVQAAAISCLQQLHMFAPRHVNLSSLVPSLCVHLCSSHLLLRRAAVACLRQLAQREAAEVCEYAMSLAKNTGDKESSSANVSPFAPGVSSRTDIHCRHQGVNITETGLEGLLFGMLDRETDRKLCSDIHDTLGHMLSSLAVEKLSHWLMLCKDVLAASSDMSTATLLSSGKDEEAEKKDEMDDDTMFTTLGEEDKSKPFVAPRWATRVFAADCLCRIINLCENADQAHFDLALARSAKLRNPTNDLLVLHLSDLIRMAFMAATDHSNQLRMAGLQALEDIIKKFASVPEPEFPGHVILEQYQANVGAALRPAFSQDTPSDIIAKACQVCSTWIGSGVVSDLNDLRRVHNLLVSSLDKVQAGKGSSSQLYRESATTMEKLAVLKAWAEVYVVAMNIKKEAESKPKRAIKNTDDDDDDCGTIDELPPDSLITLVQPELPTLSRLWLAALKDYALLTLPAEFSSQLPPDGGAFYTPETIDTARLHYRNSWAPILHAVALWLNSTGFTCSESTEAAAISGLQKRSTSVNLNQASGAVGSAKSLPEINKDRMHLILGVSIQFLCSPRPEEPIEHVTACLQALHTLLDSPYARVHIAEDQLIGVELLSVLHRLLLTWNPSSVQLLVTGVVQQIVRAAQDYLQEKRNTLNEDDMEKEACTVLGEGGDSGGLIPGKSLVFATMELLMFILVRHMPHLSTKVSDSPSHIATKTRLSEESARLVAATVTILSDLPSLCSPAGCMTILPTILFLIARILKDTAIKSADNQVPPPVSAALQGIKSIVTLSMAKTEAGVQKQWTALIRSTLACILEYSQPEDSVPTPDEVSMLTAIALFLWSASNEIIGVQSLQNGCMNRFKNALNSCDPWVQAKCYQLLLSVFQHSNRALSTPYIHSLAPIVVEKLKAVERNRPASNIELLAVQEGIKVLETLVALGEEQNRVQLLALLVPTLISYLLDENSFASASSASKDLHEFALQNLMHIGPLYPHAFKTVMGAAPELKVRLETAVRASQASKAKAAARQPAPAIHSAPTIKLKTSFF
UniProt Q1KMD3, 33-58: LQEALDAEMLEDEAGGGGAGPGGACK
UniProt P32780: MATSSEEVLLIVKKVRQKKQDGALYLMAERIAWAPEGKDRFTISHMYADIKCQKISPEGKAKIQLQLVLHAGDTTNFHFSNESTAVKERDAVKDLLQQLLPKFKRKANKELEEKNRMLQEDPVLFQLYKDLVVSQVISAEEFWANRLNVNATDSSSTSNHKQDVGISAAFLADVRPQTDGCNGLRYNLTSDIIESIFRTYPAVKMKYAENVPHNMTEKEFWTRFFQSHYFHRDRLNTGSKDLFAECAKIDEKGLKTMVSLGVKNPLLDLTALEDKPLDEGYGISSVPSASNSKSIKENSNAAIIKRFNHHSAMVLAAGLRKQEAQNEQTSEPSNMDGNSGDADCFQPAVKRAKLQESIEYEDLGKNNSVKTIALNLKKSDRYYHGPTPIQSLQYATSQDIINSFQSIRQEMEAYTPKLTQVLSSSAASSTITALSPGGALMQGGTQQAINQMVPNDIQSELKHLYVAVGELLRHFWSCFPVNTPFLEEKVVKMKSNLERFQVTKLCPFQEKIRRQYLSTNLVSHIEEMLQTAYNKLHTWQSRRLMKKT
UniProt P21266: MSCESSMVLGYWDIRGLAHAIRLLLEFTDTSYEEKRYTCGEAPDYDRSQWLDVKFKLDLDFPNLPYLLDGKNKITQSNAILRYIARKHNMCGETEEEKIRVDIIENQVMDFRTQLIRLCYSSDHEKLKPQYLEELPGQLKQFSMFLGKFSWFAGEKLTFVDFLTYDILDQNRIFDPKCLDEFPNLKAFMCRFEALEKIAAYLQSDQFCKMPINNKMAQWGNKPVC
UniProt P42694: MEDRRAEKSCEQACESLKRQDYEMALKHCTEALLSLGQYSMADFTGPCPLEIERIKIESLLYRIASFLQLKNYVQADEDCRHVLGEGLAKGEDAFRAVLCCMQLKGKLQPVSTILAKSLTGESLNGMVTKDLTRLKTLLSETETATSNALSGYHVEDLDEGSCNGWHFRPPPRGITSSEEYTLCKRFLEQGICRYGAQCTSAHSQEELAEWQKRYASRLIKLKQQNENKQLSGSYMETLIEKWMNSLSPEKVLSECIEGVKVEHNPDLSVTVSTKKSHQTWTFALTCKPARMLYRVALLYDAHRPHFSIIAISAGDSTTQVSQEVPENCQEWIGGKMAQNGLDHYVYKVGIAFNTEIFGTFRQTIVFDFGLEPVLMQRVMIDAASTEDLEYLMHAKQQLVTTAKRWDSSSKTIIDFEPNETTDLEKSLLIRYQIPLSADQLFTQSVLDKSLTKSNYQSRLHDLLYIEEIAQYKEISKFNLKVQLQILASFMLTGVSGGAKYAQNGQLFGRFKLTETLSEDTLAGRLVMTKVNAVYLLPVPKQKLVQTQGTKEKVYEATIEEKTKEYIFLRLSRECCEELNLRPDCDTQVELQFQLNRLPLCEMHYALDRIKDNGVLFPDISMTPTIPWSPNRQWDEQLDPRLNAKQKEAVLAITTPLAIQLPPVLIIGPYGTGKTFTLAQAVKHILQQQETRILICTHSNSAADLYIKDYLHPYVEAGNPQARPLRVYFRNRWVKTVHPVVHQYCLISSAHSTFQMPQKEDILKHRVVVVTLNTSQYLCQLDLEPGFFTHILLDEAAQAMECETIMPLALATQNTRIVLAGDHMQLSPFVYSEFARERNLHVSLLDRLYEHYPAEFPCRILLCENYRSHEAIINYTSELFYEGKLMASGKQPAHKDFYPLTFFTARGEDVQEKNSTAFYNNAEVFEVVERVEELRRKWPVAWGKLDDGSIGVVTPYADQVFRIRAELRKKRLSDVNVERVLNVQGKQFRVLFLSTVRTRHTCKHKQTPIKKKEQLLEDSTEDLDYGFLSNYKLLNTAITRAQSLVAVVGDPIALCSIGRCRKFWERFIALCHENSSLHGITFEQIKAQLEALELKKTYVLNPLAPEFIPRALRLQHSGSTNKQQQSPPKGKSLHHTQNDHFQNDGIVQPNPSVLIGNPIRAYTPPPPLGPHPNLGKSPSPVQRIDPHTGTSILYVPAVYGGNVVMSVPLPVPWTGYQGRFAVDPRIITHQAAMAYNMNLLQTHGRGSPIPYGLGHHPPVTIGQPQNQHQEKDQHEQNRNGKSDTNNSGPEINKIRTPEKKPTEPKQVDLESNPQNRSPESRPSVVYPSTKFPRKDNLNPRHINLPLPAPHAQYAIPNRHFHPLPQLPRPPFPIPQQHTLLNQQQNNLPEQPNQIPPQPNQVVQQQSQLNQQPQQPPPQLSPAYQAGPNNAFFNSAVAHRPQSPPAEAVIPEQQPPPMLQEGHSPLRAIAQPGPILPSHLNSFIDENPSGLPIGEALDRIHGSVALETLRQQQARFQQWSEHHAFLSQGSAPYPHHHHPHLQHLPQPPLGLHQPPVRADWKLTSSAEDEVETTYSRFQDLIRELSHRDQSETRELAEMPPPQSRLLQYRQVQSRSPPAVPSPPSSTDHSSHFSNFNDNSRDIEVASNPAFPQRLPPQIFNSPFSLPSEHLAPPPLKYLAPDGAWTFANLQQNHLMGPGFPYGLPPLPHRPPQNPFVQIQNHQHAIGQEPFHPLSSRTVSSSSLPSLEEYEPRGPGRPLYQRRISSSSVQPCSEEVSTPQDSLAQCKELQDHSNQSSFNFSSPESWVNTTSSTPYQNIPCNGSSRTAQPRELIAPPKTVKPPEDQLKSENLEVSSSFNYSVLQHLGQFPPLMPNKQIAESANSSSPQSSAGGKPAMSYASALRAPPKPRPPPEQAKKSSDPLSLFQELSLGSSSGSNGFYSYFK
UniProt Q7Z4H7: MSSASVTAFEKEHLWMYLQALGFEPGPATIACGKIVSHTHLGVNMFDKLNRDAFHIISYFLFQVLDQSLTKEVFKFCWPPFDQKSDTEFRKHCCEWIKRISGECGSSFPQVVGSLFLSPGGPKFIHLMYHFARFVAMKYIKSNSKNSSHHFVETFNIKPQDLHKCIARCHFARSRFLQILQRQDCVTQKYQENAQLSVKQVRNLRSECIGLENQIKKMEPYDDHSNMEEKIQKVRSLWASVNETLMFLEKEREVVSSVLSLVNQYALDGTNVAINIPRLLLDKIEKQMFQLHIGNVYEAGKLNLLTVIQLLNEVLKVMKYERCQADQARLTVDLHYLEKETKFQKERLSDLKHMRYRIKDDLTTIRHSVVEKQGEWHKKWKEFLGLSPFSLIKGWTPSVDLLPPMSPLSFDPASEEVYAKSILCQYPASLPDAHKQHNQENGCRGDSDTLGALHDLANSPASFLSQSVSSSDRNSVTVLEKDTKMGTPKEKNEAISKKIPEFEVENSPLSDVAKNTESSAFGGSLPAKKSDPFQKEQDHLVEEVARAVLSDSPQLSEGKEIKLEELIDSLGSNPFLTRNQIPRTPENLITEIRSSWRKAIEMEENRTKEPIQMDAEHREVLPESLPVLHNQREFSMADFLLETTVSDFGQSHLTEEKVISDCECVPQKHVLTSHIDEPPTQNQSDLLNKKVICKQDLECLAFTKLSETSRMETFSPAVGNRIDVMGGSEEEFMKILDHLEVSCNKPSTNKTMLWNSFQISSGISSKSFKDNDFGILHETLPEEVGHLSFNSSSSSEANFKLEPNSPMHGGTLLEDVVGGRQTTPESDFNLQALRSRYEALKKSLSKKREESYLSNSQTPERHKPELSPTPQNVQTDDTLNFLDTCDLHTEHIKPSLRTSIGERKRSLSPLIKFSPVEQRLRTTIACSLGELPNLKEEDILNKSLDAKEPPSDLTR
UniProt Q9Y450, whole entry, looked up: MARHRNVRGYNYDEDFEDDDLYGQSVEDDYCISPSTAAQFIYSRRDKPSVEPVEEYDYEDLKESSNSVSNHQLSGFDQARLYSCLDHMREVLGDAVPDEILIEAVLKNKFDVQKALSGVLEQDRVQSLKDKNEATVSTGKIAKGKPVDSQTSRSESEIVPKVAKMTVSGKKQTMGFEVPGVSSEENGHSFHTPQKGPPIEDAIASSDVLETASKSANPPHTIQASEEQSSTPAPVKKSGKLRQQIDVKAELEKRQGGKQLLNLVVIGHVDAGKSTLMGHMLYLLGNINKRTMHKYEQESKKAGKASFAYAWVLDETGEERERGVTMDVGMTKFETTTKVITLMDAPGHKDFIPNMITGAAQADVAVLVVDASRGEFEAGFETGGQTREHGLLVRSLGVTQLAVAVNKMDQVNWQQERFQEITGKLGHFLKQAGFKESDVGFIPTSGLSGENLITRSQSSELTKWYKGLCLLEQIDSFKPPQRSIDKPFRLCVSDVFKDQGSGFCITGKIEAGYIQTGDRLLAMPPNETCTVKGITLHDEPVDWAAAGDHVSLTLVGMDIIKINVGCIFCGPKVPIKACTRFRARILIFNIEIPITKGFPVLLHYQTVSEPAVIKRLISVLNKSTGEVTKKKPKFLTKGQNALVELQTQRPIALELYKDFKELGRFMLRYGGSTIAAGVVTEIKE
HLA-C_(C345,C345,C350,C350,C364,C364), as listed by the source: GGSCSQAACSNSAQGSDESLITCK

[2] = compound: ClCC(=O)N[C@H]1CCCc2ccccc12; experiment: as above; conditions: treatment time: 4 h, cell line lysate: HEK293T
Protocol: as §1

Target	log2 mean competition ratio ([1]; 50 µM)	log2 mean competition ratio ([1]; 200 µM)	log2 mean competition ratio ([2]; 50 µM)	log2 mean competition ratio ([2]; 200 µM)
HEXB C309 (UniProt P07686)	0.468	-0.0998	0.265	-0.136
HEATR5B C1896 (UniProt Q9P2D3)	0.376	0.0792	-0.361	0.0364
HNRNPH1 C22 (UniProt P31943)	0.145	-0.187	0.354	-0.136
HMGCR C382 (UniProt P04035)	-0.252	-0.321	-0.128	0.14
GTF3C4 C129 (UniProt Q9UKN8)	-0.129	0.0797	-0.0167	0.186
HEATR1 C1237 (UniProt Q9H583)	-0.274	0.188	0.049	-0.0439
HNRNPLL C405 (UniProt Q8WVV9)	0.847	0.0787	0.414	0.24
GTF3C3 C172 (UniProt Q9Y5Q9)	-0.262	0.273	-0.351	-0.108
GSTO1 C32	-0.0315	-0.328	0.829	-0.109
GUCY1B1 C174	-0.402	-0.00324	-0.726	-0.0585
GTF3C5 C242 (UniProt Q9Y5Q8)	0.377	0.266	0.26	0.243
HDGF C12 (UniProt P51858)	0.685	0.0617	0.529	0.12
GTPBP8 C114 (UniProt Q8N3Z3)	-0.338	0.0329	-0.649	0.0461
HCCS C66 (UniProt P53701)	0.232	0.0935	0.363	0.48
HLTF C461 (UniProt Q14527)	-0.0268	0.0427	0.1	0.103
GTF3C4 C376 (UniProt Q9UKN8)	0.3	-0.421	-0.351	-0.183
HNRNPUL2 C57 (UniProt Q1KMD3)	-0.206	-0.0571	0.489	-0.0903
HERC2 C4517 (UniProt O95714)	0.247	0.0425	-0.0408	-0.106
HEATR1 C631 (UniProt Q9H583)	0.244	-0.0667	-0.336	-0.219
GTF2H1 C506 (UniProt P32780)	-0.0261	0.351	0.96	0.482
GTF3C3 C239 (UniProt Q9Y5Q9)	0.103	-0.0794	0.163	-0.11
HEATR3 C186 (UniProt Q7Z4Q2)	0.0346	-0.163	0.0146	-0.194

Target	log2 mean competition ratio ([1]; 50 µM)	log2 mean competition ratio ([1]; 200 µM)	log2 mean competition ratio ([2]; 50 µM)	log2 mean competition ratio ([2]; 200 µM)
HERC5 C585 (UniProt Q9UII4)	-0.188	0.417	-0.22	0.241
HAUS2 C200 (UniProt Q9NVX0)	-0.15	-0.214	-0.0642	-0.272
HOOK1 C652 (UniProt Q9UJC3)	0.17	-0.158	-0.207	0.399
HEATR5A C1421 (UniProt Q86XA9)	0.269	0.181	0.245	0.216
GSTM3 C178 (UniProt P21266)	-0.00295	-0.142	-0.279	0.168
HEXIM2 C80 (UniProt Q96MH2)	0.626	-0.228	0.426	-0.0599
GTF2I C215 (UniProt P78347)	-0.0441	-0.234	0.0927	-0.138
HNRNPU C607 (UniProt Q00839)	0.0229	-0.336	0.477	-0.227
HMGCL C141 (UniProt P35914)	-0.077	-0.347	-0.0631	-0.249
HDLBP C948	0.262	0.186	0.315	0.0614
GTF3C1 C1999 (UniProt Q12789)	0.357	0.63	0.116	0.506
HLA-C_(C345,C345,C350,C350,C364,C364)	-0.158	-0.474	0.0416	-0.566
HELZ C80 (UniProt P42694)	-0.0055	-0.362	-0.166	0.134
HAUS6 C323 (UniProt Q7Z4H7)	-0.0975	-0.147	-0.128	-0.163
HMMR C361 (UniProt O75330)	0.667	0.067	-0.043	0.237
GTF3C5 C26 (UniProt Q9Y5Q8)	-0.107	-0.195	-0.275	-0.199
GSTK1 C176 (UniProt Q9Y2Q3)	-0.104	0.291	0.0751	0.365
HMMR C242 (UniProt O75330)	-0.241	0.0136	-0.501	-0.246
HBS1L C491 (UniProt Q9Y450)	-0.178	-0.305	0.121	-0.14
HEATR5B C356 (UniProt Q9P2D3)	0.164	0.347	-0.066	0.0433
HAUS3 C3 (UniProt Q68CZ6)	-0.127	0.0493	-0.0662	0.139

Some of the entries above, reformatted.
Target,log2 mean competition ratio ([1]; 50 µM),log2 mean competition ratio ([1]; 200 µM),log2 mean competition ratio ([2]; 50 µM),log2 mean competition ratio ([2]; 200 µM)
HEATR5A C1421 (UniProt Q86XA9),0.269,0.181,0.245,0.216
GSTM3 C178 (UniProt P21266),-0.00295,-0.142,-0.279,0.168
HEXIM2 C80 (UniProt Q96MH2),0.626,-0.228,0.426,-0.0599
GTF2I C215 (UniProt P78347),-0.0441,-0.234,0.0927,-0.138
